Results are given in words; binding and its absence hold for the method and conditions named. Binding seen in cells or lysates may run through a third protein. These calls come from enrichment with a bait or labelling near it, and not all partners need be listed. Where a sequence is shown, tags or fusion partners need not be part of it.

Protein sequences, listed by entry. Tags and fused reporters are not part of them.
UniProt P47170: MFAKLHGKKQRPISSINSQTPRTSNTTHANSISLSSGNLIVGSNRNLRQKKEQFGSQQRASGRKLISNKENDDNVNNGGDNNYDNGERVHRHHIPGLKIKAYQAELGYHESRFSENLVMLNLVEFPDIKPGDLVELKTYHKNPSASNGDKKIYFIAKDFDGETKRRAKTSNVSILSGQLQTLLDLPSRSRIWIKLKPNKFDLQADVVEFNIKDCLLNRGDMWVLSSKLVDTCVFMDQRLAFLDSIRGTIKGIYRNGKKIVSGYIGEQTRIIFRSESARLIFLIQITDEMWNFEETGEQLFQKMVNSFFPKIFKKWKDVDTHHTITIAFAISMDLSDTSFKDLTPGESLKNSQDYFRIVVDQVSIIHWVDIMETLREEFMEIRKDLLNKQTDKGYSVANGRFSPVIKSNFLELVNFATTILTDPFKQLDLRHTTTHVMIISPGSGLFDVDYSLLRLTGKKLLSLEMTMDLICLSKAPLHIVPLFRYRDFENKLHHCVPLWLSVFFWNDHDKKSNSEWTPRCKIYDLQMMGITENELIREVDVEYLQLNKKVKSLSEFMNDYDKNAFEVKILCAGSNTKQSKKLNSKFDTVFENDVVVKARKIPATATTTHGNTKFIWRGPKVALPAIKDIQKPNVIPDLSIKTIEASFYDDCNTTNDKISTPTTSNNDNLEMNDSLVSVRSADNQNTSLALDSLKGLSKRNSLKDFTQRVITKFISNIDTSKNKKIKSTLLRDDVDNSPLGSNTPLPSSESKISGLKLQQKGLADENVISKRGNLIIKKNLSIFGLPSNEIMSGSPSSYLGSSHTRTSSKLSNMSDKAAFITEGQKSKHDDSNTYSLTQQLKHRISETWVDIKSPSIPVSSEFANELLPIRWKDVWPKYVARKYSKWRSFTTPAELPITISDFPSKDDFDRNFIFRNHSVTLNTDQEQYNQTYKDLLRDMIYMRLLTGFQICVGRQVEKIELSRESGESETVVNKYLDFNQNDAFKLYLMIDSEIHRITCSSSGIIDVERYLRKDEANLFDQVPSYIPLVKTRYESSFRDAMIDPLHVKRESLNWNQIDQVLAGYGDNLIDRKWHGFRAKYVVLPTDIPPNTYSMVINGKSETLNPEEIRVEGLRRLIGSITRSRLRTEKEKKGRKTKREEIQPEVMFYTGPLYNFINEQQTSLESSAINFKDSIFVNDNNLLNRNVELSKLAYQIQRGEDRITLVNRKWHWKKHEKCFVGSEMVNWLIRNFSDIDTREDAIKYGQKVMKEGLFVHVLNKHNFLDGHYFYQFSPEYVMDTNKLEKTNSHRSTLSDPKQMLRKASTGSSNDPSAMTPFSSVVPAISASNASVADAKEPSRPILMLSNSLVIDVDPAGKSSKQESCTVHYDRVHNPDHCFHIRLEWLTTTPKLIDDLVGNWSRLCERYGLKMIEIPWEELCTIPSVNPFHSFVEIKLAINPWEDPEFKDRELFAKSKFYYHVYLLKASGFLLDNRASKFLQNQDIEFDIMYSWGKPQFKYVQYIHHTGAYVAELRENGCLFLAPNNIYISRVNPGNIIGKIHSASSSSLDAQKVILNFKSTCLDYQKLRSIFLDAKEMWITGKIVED
UniProt P38873: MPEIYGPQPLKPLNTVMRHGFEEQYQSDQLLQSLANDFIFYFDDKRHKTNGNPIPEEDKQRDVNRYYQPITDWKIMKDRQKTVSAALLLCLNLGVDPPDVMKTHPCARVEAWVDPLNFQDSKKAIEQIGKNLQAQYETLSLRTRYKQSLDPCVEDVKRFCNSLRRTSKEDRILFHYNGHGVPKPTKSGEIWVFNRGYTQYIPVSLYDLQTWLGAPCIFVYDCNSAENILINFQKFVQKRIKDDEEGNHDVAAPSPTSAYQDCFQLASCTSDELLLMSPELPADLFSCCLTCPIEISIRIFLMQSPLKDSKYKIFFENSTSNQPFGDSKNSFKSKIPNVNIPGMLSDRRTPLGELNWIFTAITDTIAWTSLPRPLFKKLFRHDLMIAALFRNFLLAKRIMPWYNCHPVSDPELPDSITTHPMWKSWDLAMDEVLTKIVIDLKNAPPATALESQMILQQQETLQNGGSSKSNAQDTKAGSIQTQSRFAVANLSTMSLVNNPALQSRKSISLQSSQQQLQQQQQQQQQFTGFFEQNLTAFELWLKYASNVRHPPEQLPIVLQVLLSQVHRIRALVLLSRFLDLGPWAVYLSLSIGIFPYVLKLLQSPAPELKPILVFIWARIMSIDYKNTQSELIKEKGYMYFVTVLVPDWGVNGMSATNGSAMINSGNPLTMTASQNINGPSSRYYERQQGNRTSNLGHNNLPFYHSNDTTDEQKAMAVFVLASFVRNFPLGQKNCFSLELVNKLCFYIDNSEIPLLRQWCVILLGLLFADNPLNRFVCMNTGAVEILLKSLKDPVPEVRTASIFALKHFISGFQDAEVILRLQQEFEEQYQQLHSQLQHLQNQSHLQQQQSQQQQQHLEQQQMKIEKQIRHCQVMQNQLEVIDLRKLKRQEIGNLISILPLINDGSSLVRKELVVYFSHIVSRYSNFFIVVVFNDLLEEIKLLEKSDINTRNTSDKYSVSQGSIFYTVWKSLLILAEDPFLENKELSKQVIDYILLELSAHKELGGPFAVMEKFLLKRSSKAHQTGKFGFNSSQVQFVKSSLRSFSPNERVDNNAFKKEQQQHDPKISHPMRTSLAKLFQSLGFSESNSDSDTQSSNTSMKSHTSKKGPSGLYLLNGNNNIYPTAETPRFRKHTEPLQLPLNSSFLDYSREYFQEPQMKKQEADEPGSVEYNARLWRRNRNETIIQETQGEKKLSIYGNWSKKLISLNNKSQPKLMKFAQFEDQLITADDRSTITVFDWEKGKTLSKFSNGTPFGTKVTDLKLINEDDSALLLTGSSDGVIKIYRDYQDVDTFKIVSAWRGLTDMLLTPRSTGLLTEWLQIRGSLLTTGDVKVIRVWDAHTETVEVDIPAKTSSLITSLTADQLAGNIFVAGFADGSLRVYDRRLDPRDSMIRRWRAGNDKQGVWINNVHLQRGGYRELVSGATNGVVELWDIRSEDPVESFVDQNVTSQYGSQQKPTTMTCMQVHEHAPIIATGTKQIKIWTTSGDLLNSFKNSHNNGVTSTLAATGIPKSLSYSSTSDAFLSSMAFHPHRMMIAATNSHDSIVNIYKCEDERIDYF

The labels stand for the following.
T1: GFP-Vps501 (S. cerevisiae) (UniProt P36158)
T1 sequence: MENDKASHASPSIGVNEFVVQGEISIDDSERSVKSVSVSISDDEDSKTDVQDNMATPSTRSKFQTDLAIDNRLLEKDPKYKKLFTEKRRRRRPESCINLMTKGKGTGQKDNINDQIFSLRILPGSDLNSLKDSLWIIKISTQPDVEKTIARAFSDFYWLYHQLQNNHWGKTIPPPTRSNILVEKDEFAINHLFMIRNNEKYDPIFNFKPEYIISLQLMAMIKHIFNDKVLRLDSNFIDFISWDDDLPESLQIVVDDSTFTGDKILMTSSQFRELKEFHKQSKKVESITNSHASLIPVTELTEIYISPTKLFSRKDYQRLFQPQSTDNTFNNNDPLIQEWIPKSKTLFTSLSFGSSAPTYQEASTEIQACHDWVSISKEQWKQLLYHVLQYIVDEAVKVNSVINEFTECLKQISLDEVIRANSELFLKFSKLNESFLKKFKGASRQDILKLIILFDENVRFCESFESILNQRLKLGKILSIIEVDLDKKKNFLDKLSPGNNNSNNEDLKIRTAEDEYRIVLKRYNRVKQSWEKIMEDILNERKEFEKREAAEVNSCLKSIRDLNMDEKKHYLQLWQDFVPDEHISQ

B1: Seh1 (protein, UniProt P53011 1-349)
chain: MQPFDSGHDDLVHDVVYDFYGRHVATCSSDQHIKVFKLDKDTSNWELSDSWRAHDSSIVAIDWASPEYGRIIASASYDKTVKLWEEDPDQEECSGRRWNKLCTLNDSKGSLYSVKFAPAHLGLKLACLGNDGILRLYDALEPSDLRSWTLTSEMKVLSIPPANHLQSDFCLSWCPSRFSPEKLAVSALEQAIIYQRGKDGKLHVAAKLPGHKSLIRSISWAPSIGRWYQLIATGCKDGRIRIFKITEKLSPLASEESLTNSNMFDNSADVDMDAQGRSDSNTEEKAELQSNLQVELLSEHDDHNGEVWSVSWNLTGTILSSAGDDGKVRLWKATYSNEFKCMSVITAQQ

This assay deals with T1, GFP-Vps501 (S. cerevisiae). Put plainly: affinity purification with mass spectrometry.
On to Sea1 (from UniProt P47170 1-1584), for which the binding result is on record as “binds”.
For Kog1 (from UniProt P38873 1-1557), the binding result is given as “binds”.
As for B1, the binding result was “binds”.

Values taken from paper doi:10.1101/2021.05.06.441257.
